No constants are given. Whether binding was seen depends on the method and setting. Some results given as binding are weak or reduced against the parent protein; the word gives no strength. Sequences can lack the tags named with a protein.
Experiments:
[1] = biological target: T1, Human PPARδ-LBD (amino acids 170–441), amino-terminal His-tagged (human) (UniProt Q03181); test: FRET or BRET; LANCE Ultra TR-FRET as a1 (same proteins, peptides and buffers); ligand: saroglitazar, concentration series; response as % of the maximal response with the reference agonist; both purified
T1 sequence: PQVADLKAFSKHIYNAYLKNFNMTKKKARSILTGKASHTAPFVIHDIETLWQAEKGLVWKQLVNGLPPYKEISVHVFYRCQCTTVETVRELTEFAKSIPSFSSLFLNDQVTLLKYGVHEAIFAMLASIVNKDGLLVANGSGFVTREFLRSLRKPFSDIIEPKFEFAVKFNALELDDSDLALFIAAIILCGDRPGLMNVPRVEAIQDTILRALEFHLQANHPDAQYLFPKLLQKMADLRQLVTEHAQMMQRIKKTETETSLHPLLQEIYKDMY

[2] = biological target: T2, Human PPARα-LBD (amino acids 200–468), amino-terminal His-tagged (human) (UniProt Q07869); test: FRET or BRET; LANCE Ultra TR-FRET as a1 (same proteins, peptides and buffers); ligand: pioglitazone, concentration series; response as % of the maximal response with the reference agonist; both purified
T2 sequence: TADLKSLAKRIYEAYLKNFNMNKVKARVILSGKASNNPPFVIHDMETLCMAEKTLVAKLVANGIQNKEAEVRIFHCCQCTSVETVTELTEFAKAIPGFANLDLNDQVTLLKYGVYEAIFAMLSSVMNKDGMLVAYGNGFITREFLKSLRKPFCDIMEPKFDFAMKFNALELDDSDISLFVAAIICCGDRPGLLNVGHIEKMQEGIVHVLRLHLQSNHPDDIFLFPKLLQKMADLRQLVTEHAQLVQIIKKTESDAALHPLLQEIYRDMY

[3] = biological target: T1, Human PPARδ-LBD (amino acids 170–441), amino-terminal His-tagged (human); test: as above

- binding [2]: binds weakly
Binder: CPSSHSSLTERHKILHRLLQEGSPS (biotin on the N-terminus (biotin-[residues removed])) [biotin-labeled steroid receptor coactivator 1 (SRC1) peptide (amino acids 676–700)]
- binding [1]: no binding (condition: with saroglitazar as the ligand)
- binding [3]: no binding (condition: with pioglitazone as the ligand)
